Laboratory results reported in PMC5618205.
No constants are given. Whether binding was seen depends on the method and setting. In cells and extracts the contact can be indirect. Some binding calls cover weakened binding; strength is not graded here. Tags and fused reporters may be left off the sequences shown.

Assays:
[1] = molecular target: T1, Elp1-HA (Elongator subunit Elp1, HA-tagged) (S. cerevisiae) (UniProt Q06706); assay: co-IP; anti-HA (3F10) immune precipitation of the HA-tagged Elongator subunit (Elp2-HA or Elp1-HA) from total yeast extracts of co-expressing strains; IPs probed with anti-c-Myc (9E10) for Kti12 variants
T1 sequence: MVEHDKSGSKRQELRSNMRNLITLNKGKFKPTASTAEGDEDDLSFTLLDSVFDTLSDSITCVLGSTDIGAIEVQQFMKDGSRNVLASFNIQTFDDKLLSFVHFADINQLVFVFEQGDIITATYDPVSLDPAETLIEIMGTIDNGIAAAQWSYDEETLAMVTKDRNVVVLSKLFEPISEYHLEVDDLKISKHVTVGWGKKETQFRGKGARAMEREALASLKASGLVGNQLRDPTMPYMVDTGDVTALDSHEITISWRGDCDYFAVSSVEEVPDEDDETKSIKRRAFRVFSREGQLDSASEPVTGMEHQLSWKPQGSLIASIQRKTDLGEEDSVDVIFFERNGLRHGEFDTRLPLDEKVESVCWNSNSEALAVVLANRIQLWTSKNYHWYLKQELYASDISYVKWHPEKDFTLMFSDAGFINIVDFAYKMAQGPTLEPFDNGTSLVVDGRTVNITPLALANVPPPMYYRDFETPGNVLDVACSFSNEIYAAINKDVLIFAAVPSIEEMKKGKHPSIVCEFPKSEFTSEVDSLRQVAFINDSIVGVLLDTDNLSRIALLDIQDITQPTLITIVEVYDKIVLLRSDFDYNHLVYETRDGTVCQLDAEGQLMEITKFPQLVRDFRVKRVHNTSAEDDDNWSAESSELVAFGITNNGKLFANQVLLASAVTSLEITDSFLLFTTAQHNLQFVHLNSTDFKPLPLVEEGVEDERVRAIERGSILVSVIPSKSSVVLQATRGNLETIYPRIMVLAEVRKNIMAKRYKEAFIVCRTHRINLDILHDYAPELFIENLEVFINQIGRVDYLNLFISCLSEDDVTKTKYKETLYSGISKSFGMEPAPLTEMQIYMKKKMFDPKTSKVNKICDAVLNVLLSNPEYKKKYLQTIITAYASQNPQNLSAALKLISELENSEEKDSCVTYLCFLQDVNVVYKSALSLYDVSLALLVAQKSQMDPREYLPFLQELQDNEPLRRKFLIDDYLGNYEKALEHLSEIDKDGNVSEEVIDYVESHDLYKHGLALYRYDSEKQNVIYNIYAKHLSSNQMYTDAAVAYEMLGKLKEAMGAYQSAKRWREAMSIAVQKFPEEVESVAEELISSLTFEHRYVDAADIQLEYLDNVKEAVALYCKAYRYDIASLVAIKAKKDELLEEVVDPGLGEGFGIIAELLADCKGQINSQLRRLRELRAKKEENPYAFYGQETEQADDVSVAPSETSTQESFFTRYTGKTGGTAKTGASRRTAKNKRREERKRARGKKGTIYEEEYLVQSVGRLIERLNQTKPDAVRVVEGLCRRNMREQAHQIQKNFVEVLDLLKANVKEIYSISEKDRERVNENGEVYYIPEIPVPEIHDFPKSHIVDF

[2] = molecular target: T2, Elp2-HA (Elongator subunit Elp2, HA-tagged) (S. cerevisiae) (UniProt P42935); assay: as above
T2 sequence: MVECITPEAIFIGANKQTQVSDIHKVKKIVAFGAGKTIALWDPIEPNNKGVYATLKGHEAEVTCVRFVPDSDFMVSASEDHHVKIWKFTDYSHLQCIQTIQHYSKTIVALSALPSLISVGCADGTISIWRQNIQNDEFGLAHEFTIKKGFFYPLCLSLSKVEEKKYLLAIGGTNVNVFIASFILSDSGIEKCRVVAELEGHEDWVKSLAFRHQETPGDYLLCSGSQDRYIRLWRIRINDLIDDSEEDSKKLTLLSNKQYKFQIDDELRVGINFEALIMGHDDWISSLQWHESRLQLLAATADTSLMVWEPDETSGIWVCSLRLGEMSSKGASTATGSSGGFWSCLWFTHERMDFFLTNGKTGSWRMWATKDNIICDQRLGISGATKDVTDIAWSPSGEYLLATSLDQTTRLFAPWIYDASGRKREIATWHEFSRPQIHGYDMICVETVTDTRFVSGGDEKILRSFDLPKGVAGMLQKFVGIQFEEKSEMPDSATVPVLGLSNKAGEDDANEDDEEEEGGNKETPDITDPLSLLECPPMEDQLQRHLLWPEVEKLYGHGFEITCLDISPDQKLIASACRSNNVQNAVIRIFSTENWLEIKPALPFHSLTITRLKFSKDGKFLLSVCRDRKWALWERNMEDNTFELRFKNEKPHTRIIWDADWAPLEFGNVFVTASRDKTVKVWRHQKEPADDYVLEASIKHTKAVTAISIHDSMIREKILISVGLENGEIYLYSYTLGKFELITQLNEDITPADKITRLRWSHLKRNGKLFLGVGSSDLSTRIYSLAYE

binding [1]: binds | binding [2]: binds
B1: Kti12-c-Myc (wild-type Kti12, c-Myc-tagged) (protein, UniProt P34253 1-313)
chain: MPLVLFTGYPCSGKTTLAKHLVQLLQSKIDATPSLSKYSITYHSDESLGIKHSDYITSQDERKLRSEIISAVKRDLSKNKIVIVDSLNYIKGFRYQLHCEVKNLSTTFCVIQTLCPPETIFEWNKTSNPNPWEPELLNQLIQRYEEPNSSNRWDSPLFAILTPQDNITDYIDDICKVVFQTSKSAKNSGHNDPLSKGLQKPNSATVLKPASQSNFIQVLDIETSKIIKTIMNHIKSLTSIGGVSNGTRVIVSEGITDINDDGCFFVDLPIGNVVTLAQLQRLKRQFINFNKLRDIDQDRIGPLFADYLNKNLN
